Results: publication PMC9477735, “Phosphorylation of muramyl peptides by NAGK is required for NOD2 activation” (Nature, 2022)
Results are given in words; binding and its absence hold for the method and conditions named. In cells and extracts the contact can be indirect. Some entries that bind do so weakly or less than the wild type.

Protein sequences, listed by entry. Tags and fused reporters are not part of them.
UniProt Q9HC29: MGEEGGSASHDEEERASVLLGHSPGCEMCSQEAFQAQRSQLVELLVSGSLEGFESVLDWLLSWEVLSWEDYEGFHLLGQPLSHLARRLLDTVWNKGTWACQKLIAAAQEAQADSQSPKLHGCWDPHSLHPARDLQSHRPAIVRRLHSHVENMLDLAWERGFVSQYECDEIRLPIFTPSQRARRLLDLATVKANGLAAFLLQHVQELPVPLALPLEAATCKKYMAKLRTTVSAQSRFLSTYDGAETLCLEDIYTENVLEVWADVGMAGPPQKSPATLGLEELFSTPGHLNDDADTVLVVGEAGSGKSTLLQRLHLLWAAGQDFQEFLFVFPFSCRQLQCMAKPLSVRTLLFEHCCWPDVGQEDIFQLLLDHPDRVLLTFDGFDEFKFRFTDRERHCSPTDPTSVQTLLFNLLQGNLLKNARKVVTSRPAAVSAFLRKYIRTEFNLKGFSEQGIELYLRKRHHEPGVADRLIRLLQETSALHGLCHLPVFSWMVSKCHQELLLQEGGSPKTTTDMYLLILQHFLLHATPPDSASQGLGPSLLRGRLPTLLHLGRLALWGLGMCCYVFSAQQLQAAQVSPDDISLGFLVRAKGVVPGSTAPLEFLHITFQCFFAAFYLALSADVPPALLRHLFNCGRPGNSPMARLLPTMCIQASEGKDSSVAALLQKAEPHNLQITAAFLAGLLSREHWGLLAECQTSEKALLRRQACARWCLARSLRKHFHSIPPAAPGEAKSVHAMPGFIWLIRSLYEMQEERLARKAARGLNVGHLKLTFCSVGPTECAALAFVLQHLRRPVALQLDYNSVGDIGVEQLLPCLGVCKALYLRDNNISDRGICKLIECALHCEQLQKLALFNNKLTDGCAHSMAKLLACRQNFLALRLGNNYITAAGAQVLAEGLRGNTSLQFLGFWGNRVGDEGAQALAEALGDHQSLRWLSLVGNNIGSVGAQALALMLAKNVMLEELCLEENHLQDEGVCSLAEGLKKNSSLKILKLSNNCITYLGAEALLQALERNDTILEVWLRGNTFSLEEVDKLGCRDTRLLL

Columns and labels:
[1] = target: nucleotide-binding oligomerization domain-containing protein 2 (NOD2), N-terminal NanoBiT fusion constructs (human) (UniProt Q9HC29); assay: split reporter; SmBiT-NOD2 and LgBiT-NOD2 co-transfected (30 ng of each construct) in wild-type HEK 293T cells; stimulated with 200 ng/ml L18-MDP for 24 h; NanoGlo luminescence, relative response ratio against positive and negative controls
[2] = target: nucleotide-binding oligomerization domain-containing protein 2 (NOD2), N-terminal NanoBiT fusion constructs (human) (UniProt Q9HC29); assay: split reporter; SmBiT-NOD2 and LgBiT-NOD2 co-transfected (30 ng of each construct) in NAGK-knockout HEK 293T cells; stimulated with 200 ng/ml L18-MDP for 24 h; NanoGlo luminescence, relative response ratio against positive and negative controls

nucleotide-binding oligomerization domain-containing protein 2 (NOD2), N-terminal NanoBiT fusion constructs (from UniProt Q9HC29 1-1040)
binding [1]: binds
binding [2]: no binding (condition: in NAGK-knockout HEK 293T cells)
